Results reported in article PMC5814100.
No constants are given. Whether binding was seen depends on the method and setting. Binding calls can cover weak binding; strength is not graded here. For some of these results: Binding seen in cells or lysates may run through a third protein. For some of these results: Sequences can lack the tags named with a protein. Values belong to the substance of their own block, whether it stands above or below them.

What was measured:
[1] = molecular target: T1, GFP-SAP (Arabidopsis thaliana) (UniProt Q9FKH1); assay: co-IP; GFP-Trap-A beads with total protein extracts of transgenic Arabidopsis; seedlings pre-treated with MG132; immunoblot with anti-Myc and anti-GFP
T1 sequence: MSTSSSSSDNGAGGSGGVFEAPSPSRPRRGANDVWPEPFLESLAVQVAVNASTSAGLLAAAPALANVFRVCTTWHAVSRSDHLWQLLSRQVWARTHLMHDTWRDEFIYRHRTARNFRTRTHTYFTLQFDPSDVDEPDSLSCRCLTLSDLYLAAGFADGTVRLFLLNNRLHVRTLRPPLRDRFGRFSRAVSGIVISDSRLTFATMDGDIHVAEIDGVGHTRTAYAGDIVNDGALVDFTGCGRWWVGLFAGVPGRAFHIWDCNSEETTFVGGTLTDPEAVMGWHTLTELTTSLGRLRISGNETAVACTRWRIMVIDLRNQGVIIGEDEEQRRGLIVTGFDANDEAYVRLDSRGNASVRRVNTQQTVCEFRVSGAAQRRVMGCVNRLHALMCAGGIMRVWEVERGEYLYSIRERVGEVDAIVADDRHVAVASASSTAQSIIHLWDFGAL

[2] = molecular target: T2, GST-SAP (Arabidopsis thaliana) (UniProt Q9FKH1); assay: pull-down; His-KIX8/9 incubated with GST-SAP or GST-GUS, pulled down by glutathione sepharose, immunoblot with anti-His
T2 sequence: T1 sequence

[3] = molecular target: T3, SAP-nLUC (Arabidopsis thaliana) (UniProt Q9FKH1); assay: split reporter; split luciferase complementation; SAP-nLUC and cLUC-KIX8/9 co-expressed in N. benthamiana leaves, luminescence 24 hours after infiltration
T3 sequence: T1 sequence

[4] = molecular target: T4, STERILE APETALA (SAP), bait construct pGBKT7-SAP (Arabidopsis thaliana) (UniProt Q9FKH1); assay: two-hybrid; library screen with the bait pGBKT7-SAP, Matchmaker Gold Yeast Two-Hybrid system (Clontech)
T4 sequence: T1 sequence

binding [1]: binds
Substance: Myc-KIX8 (Arabidopsis thaliana)

binding [2]: binds
Substance: His-KIX8 (Arabidopsis thaliana)

binding [3]: binds
Substance: cLUC-KIX8 (Arabidopsis thaliana)

binding [4]: binds
Substance: KIX9, prey found in the yeast two-hybrid screen (Arabidopsis thaliana)

binding [2]: binds
Substance: His-KIX9 (Arabidopsis thaliana)

binding [1]: binds
Substance: Myc-KIX9 (Arabidopsis thaliana)

binding [3]: binds
Substance: cLUC-KIX9 (Arabidopsis thaliana)
